According to paper PMC3788105:
Results are given in words; binding and its absence hold for the method and conditions named. Binding seen in cells or lysates may run through a third protein. Binding calls can cover weak binding; strength is not graded here.

Columns and labels:
Experiment in all cases: co-IP; HA-Htz1 immunoprecipitated from soluble yeast cell lysate with monoclonal anti-HA agarose beads overnight at 4°C, washed three times in co-IP buffer; partners detected by immunoblot (anti-Flag or anti-Chz1)
[1] = target: HA-tagged Htz1 ∆111-133 (truncated at position 110) (S. cerevisiae)
[2] = target: HA-tagged Htz1 S111P (S. cerevisiae)
[3] = target: HA-tagged Htz1 I109T (S. cerevisiae)

Measured: binding

B1: Chz1 (protein, UniProt P40019 1-153)
chain: MSDEAKEKRELESQKESSHNKSEKSVEPKPKRRRRRNYDDYDAEVAKEETKAKNGLTKSENNGTVEDSESDMDDAKLDALMGNEGEEEEDDLAEIDTSNIITSGRRTRGKVIDYKKTAEELDKKEPSTGSKDDVGYGEKEEDDEDEEDDDFKE
binds: all assays above
